Data as given in PubChem BioAssay AID1259254 (NCATS, 2017)
The deposit covers about 59,000 reagents; shown is a random part of them. About 1,550 of all reagents (2.6%) count as active. 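G2 share is only a proxy for re-replication; each gene was hit by three separate siRNAs, and active genes were retested.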 Reagents against one gene are numbered here. Not all columns of the deposit are shown. Not stated in the record: the amount of reagent.

Purpose: 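Finding genes that stop cells copying their DNA twice in one cycle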 (primary screen)
Cell system: human HCT116 colorectal cancer cells
Reagent: single siRNA against human genes
Duration: 3 days
Read-out: 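Nuclei stained with Hoechst and imaged; cell-cycle phase assigned by DNA content; G2 share scaled per plate, non-targeting siRNA 0%, GMNN siRNA 100%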
Direction: G2 robust z-score: higher = more G2 cells, more excess DNA replication
Hit rule: 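Active siRNAs have a G2 robust z of 5 or more median absolute deviations over the median, which in these data means about 38% or higher of GMNN control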

| Target gene | siRNA no. | G2 robust z-score | call |
| --- | --- | --- | --- |
| PKNOX1 | 1 | 0.646 | inactive |
| PKNOX1 | 2 | 0.531 | inactive |
| PKNOX1 | 3 | 0.123 | inactive |
| TNNC1 | 1 | -1.18 | inactive |
| TNNC1 | 2 | -0.883 | inactive |
| TNNC1 | 3 | 0.141 | inactive |
| GNL1 | 1 | -0.393 | inactive |
| GNL1 | 2 | -0.621 | inactive |
| GNL1 | 3 | 0.139 | inactive |
| ZNF843 | 1 | -0.396 | inactive |
| ZNF843 | 2 | -0.119 | inactive |
| ZNF843 | 3 | -0.422 | inactive |
| HAT1 | 1 | 3.62 | inactive |
| HAT1 | 2 | -0.688 | inactive |
| HAT1 | 3 | -0.337 | inactive |
| SNAPC4 | 1 | -1.3 | inactive |
| SNAPC4 | 2 | -1.01 | inactive |
| SNAPC4 | 3 | 0.729 | inactive |
| TBC1D28 | 1 | -0.927 | inactive |
| TBC1D28 | 2 | 0.249 | inactive |
| TBC1D28 | 3 | -0.539 | inactive |
| RALGAPA1 | 1 | -0.268 | inactive |
| RALGAPA1 | 2 | -0.577 | inactive |
| RALGAPA1 | 3 | -0.333 | inactive |
| PRKCB | 1 | -0.926 | inactive |
| PRKCB | 2 | -1.21 | inactive |
| PRKCB | 3 | -1.17 | inactive |
| RARRES1 | 1 | -1.08 | inactive |
| RARRES1 | 2 | 1.69 | inactive |
| RARRES1 | 3 | -0.805 | inactive |
| OR7A17 | 1 | 0.666 | inactive |
| OR7A17 | 2 | -0.563 | inactive |
| OR7A17 | 3 | 0.965 | inactive |
| RP1L1 | 1 | 3.3 | inactive |
| RP1L1 | 2 | -0.838 | inactive |
| RP1L1 | 3 | -0.414 | inactive |

3 entries from above, arranged by “G2 robust z-score”, highest first.
| Target gene | siRNA no. | G2 robust z-score | call |
| --- | --- | --- | --- |
| SNAPC4 | 3 | 0.729 | inactive |
| TBC1D28 | 1 | -0.927 | inactive |
| SNAPC4 | 2 | -1.01 | inactive |

The results go on:
| Target gene | siRNA no. | G2 robust z-score | call |
| --- | --- | --- | --- |
| MAP1A | 1 | 3.45 | inactive |
| MAP1A | 2 | 1.81 | inactive |
| MAP1A | 3 | 0.221 | inactive |
| ZC3H11A | 1 | 0.383 | inactive |
| ZC3H11A | 2 | -0.49 | inactive |
| ZC3H11A | 3 | 1.43 | inactive |
| RAB35 | 1 | -0.278 | inactive |
| RAB35 | 2 | 1.28 | inactive |
| RAB35 | 3 | 0.0104 | inactive |
| EFR3A | 1 | 0.783 | inactive |
| EFR3A | 2 | 1.53 | inactive |
| EFR3A | 3 | 0.964 | inactive |
| CFAP210 | 1 | 1.5 | inactive |
| CFAP210 | 2 | -0.523 | inactive |
| CFAP210 | 3 | -0.633 | inactive |
| ZNF232 | 1 | 2.62 | inactive |
| ZNF232 | 2 | 0.91 | inactive |
| ZNF232 | 3 | 0.428 | inactive |
| TPBGL | 1 | -0.715 | inactive |
| TPBGL | 2 | -0.311 | inactive |
| TPBGL | 3 | -0.0819 | inactive |
| KIAA0513 | 1 | -0.418 | inactive |
| KIAA0513 | 2 | 0.735 | inactive |
| KIAA0513 | 3 | -0.0238 | inactive |
| CPNE1 | 1 | 1.58 | inactive |
| CPNE1 | 2 | 1.17 | inactive |
| CPNE1 | 3 | 3.15 | inactive |
| ZNF585B | 1 | 0.96 | inactive |
| ZNF585B | 2 | 0.932 | inactive |
| ZNF585B | 3 | -0.748 | inactive |
| ZNF501 | 1 | 1.86 | inactive |
| ZNF501 | 2 | 0.152 | inactive |
| ZNF501 | 3 | 0.917 | inactive |
